These results are taken from article doi:10.1101/2021.04.08.438944.

Assay [1] concerns the target T1, DNAJB14-FL tagged with FLAG (human) (UniProt Q8TBM8).
T1 sequence: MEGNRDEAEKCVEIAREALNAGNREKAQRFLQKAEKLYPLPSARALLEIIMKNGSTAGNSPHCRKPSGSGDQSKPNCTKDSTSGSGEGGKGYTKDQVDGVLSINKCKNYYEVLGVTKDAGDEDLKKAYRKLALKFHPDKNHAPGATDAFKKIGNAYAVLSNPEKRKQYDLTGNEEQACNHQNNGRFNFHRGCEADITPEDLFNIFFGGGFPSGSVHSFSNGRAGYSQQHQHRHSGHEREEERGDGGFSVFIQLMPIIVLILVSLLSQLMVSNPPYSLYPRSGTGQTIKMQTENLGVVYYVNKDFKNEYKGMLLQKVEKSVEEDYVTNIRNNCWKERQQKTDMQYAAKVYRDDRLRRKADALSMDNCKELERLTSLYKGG
Kind of assay: co-IP.

The target of assay [2] is T2, DNAJB14-HPDmut1 tagged with FLAG (human) (UniProt Q8TBM8).
T2 sequence: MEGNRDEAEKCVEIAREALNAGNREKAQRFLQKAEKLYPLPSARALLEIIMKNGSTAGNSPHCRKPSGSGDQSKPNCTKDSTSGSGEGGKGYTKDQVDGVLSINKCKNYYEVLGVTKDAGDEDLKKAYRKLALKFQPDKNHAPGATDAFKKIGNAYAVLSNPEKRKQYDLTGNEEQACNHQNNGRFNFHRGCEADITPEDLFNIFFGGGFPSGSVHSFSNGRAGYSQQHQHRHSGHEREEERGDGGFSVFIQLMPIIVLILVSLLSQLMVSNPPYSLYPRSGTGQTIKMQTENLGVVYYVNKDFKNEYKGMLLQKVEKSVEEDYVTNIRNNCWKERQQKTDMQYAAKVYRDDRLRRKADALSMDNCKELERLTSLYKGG
The experiment in a line: co-IP.

No constants are given. Whether binding was seen depends on the method and setting. Binding seen in cells or lysates may run through a third protein. Some results given as binding are weak or reduced against the parent protein; the word gives no strength. Sequences can lack the tags named with a protein.

B1: DNAJB12-FL tagged with mOrange (protein, UniProt Q9NXW2-1 1-375)
chain: MESNKDEAERCISIALKAIQSNQPDRALRFLEKAQRLYPTPRVRALIESLNQKPQTAGDQPPPTDTTHATHRKAGGTDAPSANGEAGGESTKGYTAEQVAAVKRVKQCKDYYEILGVSRGASDEDLKKAYRRLALKFHPDKNHAPGATEAFKAIGTAYAVLSNPEKRKQYDQFGDDKSQAARHGHGHGDFHRGFEADISPEDLFNMFFGGGFPSSNVHVYSNGRMRYTYQQRQDRRDNQGDGGLGVFVQLMPILILILVSALSQLMVSSPPYSLSPRPSVGHIHRRVTDHLGVVYYVGDTFSEEYTGSSLKTVERNVEDDYIANLRNNCWKEKQQKEGLLYRARYFGDTDMYHRAQKMGTPSCSRLSEVQASLHG
For the molecule B1, the binding result in assay [1] and in assay [2] was “binds” throughout.
